For the experiment, the target named is CCAAT/enhancer binding protein β (mouse (endogenous in primary mixed glial cultures)) (UniProt P28033). The experiment is described as follows: co-IP; anti-C/EBPβ (polyclonal rabbit) on Dynabeads protein A; 200 μg protein from chromatin extracts of control and LPS-treated (six hours) primary mixed glial cultures, overnight at 4°C; washed with PBS; blot with anti-HDAC1 and anti-C/EBPβ; rabbit IgG and unlabeled beads as negative controls.

By UniProt entry, the sequences of proteins in these tests, tags left out.
UniProt P28033: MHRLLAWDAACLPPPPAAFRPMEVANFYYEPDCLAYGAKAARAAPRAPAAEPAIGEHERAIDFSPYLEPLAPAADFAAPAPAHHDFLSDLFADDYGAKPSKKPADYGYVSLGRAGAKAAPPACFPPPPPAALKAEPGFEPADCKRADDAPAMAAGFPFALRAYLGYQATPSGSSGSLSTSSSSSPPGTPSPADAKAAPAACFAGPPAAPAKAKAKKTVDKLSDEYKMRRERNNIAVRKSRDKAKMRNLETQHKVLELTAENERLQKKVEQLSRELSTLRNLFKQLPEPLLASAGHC
UniProt O09106: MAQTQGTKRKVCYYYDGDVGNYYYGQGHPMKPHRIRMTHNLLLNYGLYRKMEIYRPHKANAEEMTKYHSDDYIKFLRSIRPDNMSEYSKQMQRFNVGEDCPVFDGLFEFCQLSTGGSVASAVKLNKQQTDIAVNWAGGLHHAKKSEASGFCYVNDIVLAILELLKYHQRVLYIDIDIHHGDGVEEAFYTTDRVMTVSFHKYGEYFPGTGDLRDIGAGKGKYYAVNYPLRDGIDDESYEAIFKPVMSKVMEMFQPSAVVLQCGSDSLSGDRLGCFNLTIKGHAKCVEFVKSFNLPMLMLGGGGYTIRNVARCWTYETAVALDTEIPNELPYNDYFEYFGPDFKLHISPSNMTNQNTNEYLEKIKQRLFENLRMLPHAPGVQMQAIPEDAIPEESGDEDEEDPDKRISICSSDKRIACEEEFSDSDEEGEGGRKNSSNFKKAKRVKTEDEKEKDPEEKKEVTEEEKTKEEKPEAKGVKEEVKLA

These are yes or no findings as the source states them, for the method shown. In cells and extracts the contact can be indirect. Some binding calls cover weakened binding; strength is not graded here.

In the case of “histone deacetylase 1 (from UniProt O09106 1-482) (enzyme)”, the binding result is on record as “binds”.

(Values after PMC3414764.)
